Measurements taken from patent publication US6914057B1, “Inhibitor of cataract formation” (The Research Foundation of State University of New York, priority 1998, dated 2005).
At least one compound was matched to its structure with a doubt left.

System: Type II ZDF/GMI diabetic rats
Experiment: Development of cataracts in Type II ZDF/GMI diabetic rats treated with tetracycline analogues
Type: in vivo, rat
Text: Diabetics develop posterior subcapsular cataracts, characterized by a central opacity in the nucleus and cortex. […] In the current study, CMT-8 administration to the Type II diabetic rats reduced the incidence of cataract development by […] at five months. In fact, this therapeutic effect may have been underestimated since it was an unexpected finding and, therefore, was not documented at the earlier time points. The mechanisms by which Type II (and Type I) diabetes causes the development of these cataracts is not yet understood.
Specifically, approximately 60% of untreated Type II ZDF/GMI diabetic rats developed cataracts whereas approximately 42% of Type II ZDF/GMI diabetic rats treated with CMT-8 developed cataracts.
In particular, approximately 60% of Type II ZDF/GMI diabetic rats treated with doxycycline developed cataracts and approximately 70% of Type II ZDF/GMI diabetic rats treated with CMT-3 developed cataracts.
It is believed that the lack of efficacy for doxycycline and CMT-3 was due to the serum concentration achieved. […] The peak serum concentration for doxycycline was determined to be 0.9 μg/ml and the peak serum concentration for CMT-3 was determined to be 4.6 μg/ml. The peak serum concentration, though, for CMT-8 was determined to be 15 μg/ml. […]

C[C@H]1c2cccc(O)c2C(=O)C2=C(O)[C@]3(O)C(=O)C(C(N)=O)=C(O)[C@@H](N(C)C)[C@@H]3[C@@H](O)[C@@H]21 [doxycycline, reference compound]
cataract development in photographs compared with non-diabetic control rats (in words) (FIGS. 2 and 3, treated Type II ZDF/GMI diabetic rats): does not appear to be effective | prevention of cataract development (in words) (ZDF/Gmi-fa Type II diabetic rats, at five months): not as effective
